The campaign covered roughly 340,000 compounds. About 170 (0.05%) were called active. Inconclusive results, whose numbers are uncertain, are shown with a selection of clear calls. The call rests on the fitted dose curve; in most records, active means well fitted inhibition curve with a large enough effect in the signal ratio, with a control signal flat (not every such curve was filed as active); inconclusive means small, poorly fitted or top-dose-only effect, or effect the other way, or a change in a side signal; inactive means flat fitted curve, though single readings scatter; the % refers to the signal ratio. A potency beside an inconclusive call is a rough fit, not a confirmed value.
Assay: qHTS Assay to Find Inhibitors of Chronic Active B-Cell Receptor Signaling;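 on activity change, negative = inhibition: plate controls were basal doxycycline-induced cells for no effect and cells given 10 µM MG132 for full effect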
Conditions: ABC-DLBCL IkBa-CBG/CBR reporter, luminescence ratio (green luciferase fused to IkBa over red control in TMD8 lymphoma cells), 4 h; activity change, negative = inhibition: at 46.1 µM (top of the series)
How it was run: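 TMD8 ABC-DLBCL cells carrying doxycycline-inducible green luciferase fused to IkappaBalpha plus unfused red luciferase were exposed to compounds (up to 46 uM) for 4 hrs at 37C. Activity came from the overlap-corrected green/red luminescence ratio.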
Potency means the concentration at half of the fitted maximal effect.

Structure (SMILES) | activity change, negative = inhibition | Potency
Cc1cc(NC(=O)CSc2nc3c(sc4ccccc43)c(=O)n2CCc2ccccc2)n[nH]1 | inactive: 14.8% | 
Cc1ccc(-c2noc(-c3cc4ccccc4oc3=O)n2)cc1 |  | inconclusive: 17.8 µM [falling, single point]
CCN1C(=O)/C(=C2\SC(=S)N(NC(=O)c3cccnc3)C2=O)c2ccccc21 | inconclusive: -0.0462% | 
CCN(CC)S(=O)(=O)c1ccc2c(c1)N(CC(=O)Nc1cccnc1Cl)C(=O)CO2 |  | inconclusive: 3.98 µM [rising, partial curve, poor fit]
Cc1cc(NCc2ccccc2)nc2ccccc12 | inconclusive: 10.7% | 
NC(=O)C1=C[C@@H](c2ccc(Br)cc2)C[C@@H](OCCCCO)O1 | inconclusive: 25% | 
Cc1ccc(/C=N/NC(=O)c2ccoc2C)o1 |  | inconclusive: 29.1 µM [falling, single point]
CCc1cc(C(=O)N/N=C/c2ccc(O)cc2O)c2ccccc2n1 |  | inconclusive: 22.4 µM [falling, single point]
O=c1oc(Nc2cccc(Cl)c2)nc2ccccc12 |  | inconclusive: 35.5 µM [rising, single point]
CCOc1ccc(NC(=O)N2CCC(n3nnc4cc(C)ccc43)CC2)cc1 | inconclusive: 3.42% | 
N=c1c(S(=O)(=O)c2ccccc2)cc2c(=O)n3ccccc3nc2n1CC1CCCO1 (centres undefined) | inactive: 2.91% | 
CCC(CC)C(=O)Nc1ccc(C)cc1O | inconclusive: 24.3% | 
CS(=O)(=O)c1cccc(-c2csc(N3CCC(C(N)=O)CC3)n2)c1 | inconclusive: -3.42% | 
O=C(NCCc1cscn1)C1CCC(=O)N(Cc2ccc(Cl)cc2)C1 (centres undefined) | inactive: 0.179% | 
CCOC(=O)c1c(S(=O)(=O)NCC(=O)NCc2ccccc2Cl)c(C)n(C)c1C | inconclusive: 10.3% | inconclusive: 35.5 µM [falling, single point]
N#Cc1c(-c2ccc(Br)cc2)cc(-c2cccnc2)nc1N | inactive: 5.55% | 
O=C(CCc1ccccc1O)N/N=C/c1ccc(Sc2cccc3cccnc23)o1 |  | inconclusive: 18.4 µM [falling, partial curve]
O=C(O)C1CC(=O)N(c2ccc(OCc3c(F)cccc3Cl)cc2)C1 (centres undefined) |  | inconclusive: 20.6 µM [falling, partial curve]
CCc1[nH]c(=S)c(C#N)c2c1CCCC2 | inconclusive: 0.833% | 
COc1ccc(/C=N/NC(=O)c2ccc3ccccc3c2)cc1OS(=O)(=O)c1ccc(NC(C)=O)cc1 |  | inconclusive: 12.6 µM [falling, partial curve]
COc1ccc(OC(=O)c2ccc(Cl)cc2)c(C(C)=O)c1 | inconclusive: 6.77% | 
O=C(NCc1ccc(-n2cccc2)cc1)c1cccc(F)c1 | inconclusive: 4.02% | 
Oc1ccc2ccccc2c1C=Nc1ccccc1-c1nc2ccccc2[nH]1 | inconclusive: -0.623% | 
Cc1nc2ccccc2nc1OCC(=O)NCc1ccc2c(c1)OCO2 | inactive: 1.37% | 
Cc1ccc(C)c(CSc2nnc3[nH]c(=O)cc(-c4ccccc4)n23)c1 |  | inconclusive: 0.562 µM [rising, full curve, poor fit]
CC1Cc2ccccc2N1C(=O)c1cnc2n(c1=O)CCS2 (centres undefined) |  | inconclusive: 29.1 µM [rising, single point]

Structure (SMILES) | activity change, negative = inhibition | Potency
COc1cccc(NC(=O)Nc2nnc(CC(=O)NCc3ccccc3)s2)c1 | inconclusive: -3.52% | 
Cc1c(C(=O)N2CCCCC2)oc2ccc(S(=O)(=O)N3CC(C)CC(C)C3)cc12 (centres undefined) | inconclusive: 0.816% | 
CCNc1c(N)c(=O)oc2ccccc12 |  | inconclusive: 11.2 µM [falling, partial curve]
COc1cc(OC)cc(C(=O)NNC(=O)c2ccccc2Br)c1 |  | inconclusive: 4.11 µM [falling, partial curve, poor fit]
Cc1cc(NC(=O)COC(=O)c2cccc(O)c2)no1 | inconclusive: -4.04% | 
COCc1cc(C)nc2sc3c(=O)n(-c4ccccc4C(F)(F)F)nnc3c12 | inconclusive: 10.4% | 
CC(=O)Nc1ccc2nc(NC(=O)CS(=O)(=O)c3ccc(C)cc3)sc2c1 |  | inconclusive: 12.6 µM [falling, single point]
CC(=O)Nc1ccc(/C=C/C(=O)c2ccccc2)cc1 |  | inconclusive: 28.2 µM [falling, single point]
CSc1nsc(SCC(=O)Nc2ccc(OC(C)=O)cc2)n1 | inconclusive: 5.9% | 
Cc1cc(Cl)c2oc(C(=O)N(C)CCc3cnn(C)c3)c(C)c2c1 | inconclusive: 4.36% | 
CCOc1ccc(C(Nc2cccnc2)c2cc(Cl)c3cccnc3c2O)cc1 (centres undefined) |  | inconclusive: 14.1 µM [falling, partial curve]
CC(C)C1=NN(C(=O)c2ccccc2)C(O)(C(C)(C)C)C1 (centres undefined) |  | inconclusive: 11.2 µM [falling, partial curve]
Cc1coc2c(C)c3oc(=O)c(CCC(=O)N4CCC(C(=O)NCCCC(=O)O)(c5ccccc5)CC4)c(C)c3cc12 | inactive: 6.91% | 
Cc1cccc(C(=O)NCc2nnc(SCC(=O)NC3CCCC3)n2C)c1 | inactive: -1.44% | 
Cc1cc(=O)oc(C)c1C(=O)Nc1cccc(F)c1 | inactive: 6.33% | 
Cc1cc(/C=N/NC(=O)CC#N)c(C)n1-c1ccc([N+](=O)[O-])cc1 | inactive: -0.425% | 
CCOC(=O)c1ccc(CS(=O)c2ccc(Cl)cc2)o1 (centres undefined) |  | inconclusive: 7.08 µM [falling, partial curve]
COc1ccc(-c2onc(C)c2-c2ccc3c(c2)OCCO3)c(O)c1 |  | inconclusive: 12.6 µM [falling, partial curve, poor fit]
O=C(O)c1cccc2c1C(=O)c1ccc(-c3ccc(Cl)c(C(F)(F)F)c3)cc1S2(=O)=O | inactive: -6.6% | 
Cc1ccc(-c2cc(C(=O)N3CCN(c4ccc(O)cc4)CC3)c3ccccc3n2)cc1 | inactive: 9.06% | 
COc1ccc(/C=C/C(=O)Oc2cc(O)cc(O)c2)cc1 | inconclusive: 2.71% | 
Cc1ccc(OCCNC(=O)c2cc(C3CC3)nc3c2cnn3C(C)C)cc1 | inconclusive: 11.3% | 
O=C(Nc1ccc([N+](=O)[O-])cc1)C(=O)Nc1cccc(C(=O)O)c1 | inconclusive: 186% | 
Cc1ccc(O)c(NC(=O)c2cc(-c3ccccc3)on2)c1 |  | inconclusive: 3.55 µM [rising, full curve, poor fit]
O=C(CN1CCN(c2ccccc2)CC1)Nc1ccc(-n2cnnn2)cc1 | inconclusive: 4.95% | 
O=C(Nc1ccccc1)Nc1cccc(NC(=O)Nc2ccccc2)c1F | inconclusive: -4.03% | 

A draw from above in order of heavy-atom count, smallest number first:
Structure (SMILES) | activity change, negative = inhibition | Potency
CCNc1c(N)c(=O)oc2ccccc12 |  | inconclusive: 11.2 µM [falling, partial curve]
CC(=O)Nc1ccc(/C=C/C(=O)c2ccccc2)cc1 |  | inconclusive: 28.2 µM [falling, single point]
COc1cc(OC)cc(C(=O)NNC(=O)c2ccccc2Br)c1 |  | inconclusive: 4.11 µM [falling, partial curve, poor fit]
Cc1cccc(C(=O)NCc2nnc(SCC(=O)NC3CCCC3)n2C)c1 | inactive: -1.44% | 
COc1cccc(NC(=O)Nc2nnc(CC(=O)NCc3ccccc3)s2)c1 | inconclusive: -3.52% | 
Cc1ccc(-c2cc(C(=O)N3CCN(c4ccc(O)cc4)CC3)c3ccccc3n2)cc1 | inactive: 9.06% | 

More results follow.

Structure (SMILES) | activity change, negative = inhibition | Potency
N#Cc1cccc(NC(=O)CNC(=O)Cc2ccccc2)c1 | inconclusive: -11.1% | 
COc1ccc(-c2nc(C#N)c(NC(C)c3ccccc3)o2)cc1OC (centres undefined) |  | inconclusive: 18.4 µM [falling, single point]
O=C(NN=C1CCCC1)c1cccs1 |  | inconclusive: 5.8 µM [falling, single point]
Cc1ccc(N=Nc2ccc(N)cc2C)c(S(N)(=O)=O)c1 | inconclusive: -15% | 
Cc1cccc(N2CCN(C(=O)COc3cccc4c3OC(C)(C)C4)CC2)c1C |  | inconclusive: 18.4 µM [falling, single point]
COc1ccc(Cl)cc1N(CC(=O)Nc1ccccc1SC)S(C)(=O)=O |  | inconclusive: 32.6 µM [falling, partial curve, poor fit]
O=C(NCCc1ccc(C(F)(F)F)cc1)C1CCC(=O)N(CCCc2ccccc2)C1 (centres undefined) | inconclusive: -2.58% | 
COc1cccc(CNn2cnnc2)c1OCc1ccccc1F | inconclusive: -0.899% | 
COc1ccc(N2C(=O)CC(NC3CC3)C2=O)cc1 (centres undefined) | inconclusive: 8.43% | 
Cn1c(N)c(C(=O)c2cc(-c3ccccn3)nc3ccccc23)c(=O)[nH]c1=O | inconclusive: -1.34% | 
O=C(Nc1cccc(Cl)c1)N1CCSc2cc(Cl)ccc21 | inconclusive: 0.207% | 
c1ccc(CCc2nc3ccccc3[nH]2)cc1 | inconclusive: 16.2% | 
CC(=O)NC(c1cccc([N+](=O)[O-])c1)c1ccc2cccnc2c1O (centres undefined) |  | inconclusive: 0.562 µM [falling, partial curve, poor fit]
Cc1cccc(C)c1NC(=S)N(CCN(C)C)Cc1cccs1 |  | inconclusive: 0.708 µM [falling, full curve, poor fit]
COc1ccc(Nc2nc(-c3ccccc3)c3ccccc3n2)cc1 |  | inconclusive: 4.11 µM [rising, full curve, poor fit]
COc1ccc(S(=O)(=O)Nc2ccccc2C)cc1 | inactive: -8.46% | 
CCCCCCOc1ccc(C(CC(=O)NC)C(=O)O)cc1 (centres undefined) | inconclusive: 6.64% | 
Cc1ccc(/C=N/NC(=O)Cc2c(F)cccc2Cl)s1 |  | inconclusive: 15.8 µM [falling, partial curve, poor fit]
COc1ccc(OC)c(NC(=O)CCNC(=O)c2ccco2)c1 | inconclusive: 2.41% | 
Cc1cccc(NC(=O)[C@H](Cc2c[nH]c3ccccc23)NC(=O)[C@@H]2Cc3ccccc3CN2)c1 | inconclusive: -12% | 
O=C1c2ccccc2C(=O)c2c(NCc3cccnc3)cccc21 | inconclusive: -7.55% | 
O=C(CS(=O)(=O)c1ccc(F)cc1)N1CCN(c2ccccc2)CC1 | inconclusive: 11.4% | 
CCCCOc1ccc(CSCCN=C(N)N)cc1 |  | inconclusive: 35.5 µM [falling, single point]
OCCc1c[nH]c2ccc(OCc3ccccc3)cc12 | inconclusive: 2.01% | 
CCOC(=O)c1ccc(NC(=O)N(CC)CC)cc1 |  | inconclusive: 23.1 µM [falling, single point]
Cc1ccc2c(C)c(C(=O)N3CCN(Cc4ccc5c(c4)OCO5)CC3)oc2c1C | inactive: -10.7% | 

Source: PubChem BioAssay AID493014 (National Center for Advancing Translational Sciences (NCATS), 2011)
